The target in the assay is T1, 3xFLAG::UNC-51 CRISPR (C. elegans) (UniProt Q23023).
T1 sequence: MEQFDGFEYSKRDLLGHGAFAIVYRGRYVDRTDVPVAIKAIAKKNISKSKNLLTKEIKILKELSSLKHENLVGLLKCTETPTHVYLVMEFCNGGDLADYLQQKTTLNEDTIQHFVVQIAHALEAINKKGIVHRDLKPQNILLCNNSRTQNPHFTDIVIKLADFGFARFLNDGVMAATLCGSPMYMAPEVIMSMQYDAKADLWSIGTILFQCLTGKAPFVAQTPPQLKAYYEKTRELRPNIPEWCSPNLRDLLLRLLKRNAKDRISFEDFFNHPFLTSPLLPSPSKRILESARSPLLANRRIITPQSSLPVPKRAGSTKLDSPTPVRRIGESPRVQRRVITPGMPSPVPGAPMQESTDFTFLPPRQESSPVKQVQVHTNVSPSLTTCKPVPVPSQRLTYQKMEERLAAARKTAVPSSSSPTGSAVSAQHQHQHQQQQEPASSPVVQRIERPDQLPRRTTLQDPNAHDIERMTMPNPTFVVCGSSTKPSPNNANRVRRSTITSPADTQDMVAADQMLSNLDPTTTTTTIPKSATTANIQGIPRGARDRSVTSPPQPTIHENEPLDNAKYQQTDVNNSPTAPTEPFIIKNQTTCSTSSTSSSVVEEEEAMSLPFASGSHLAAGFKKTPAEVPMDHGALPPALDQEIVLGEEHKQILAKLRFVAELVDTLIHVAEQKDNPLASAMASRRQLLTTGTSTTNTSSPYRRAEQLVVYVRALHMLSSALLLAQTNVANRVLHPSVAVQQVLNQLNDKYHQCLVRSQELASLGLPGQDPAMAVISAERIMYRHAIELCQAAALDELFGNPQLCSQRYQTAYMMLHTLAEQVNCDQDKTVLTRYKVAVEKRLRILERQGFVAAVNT
In words: co-IP; whole-worm lysates of CRISPR strains (2.5 mg total protein), anti-FLAG (M2) or anti-GFP (3E6) antibody 30 min, then protein-G agarose 4 h at 4 °C; immunoblot with anti-FLAG or anti-GFP. In general terms: Immunoblotting shows a protein as a band on a membrane.

Chains of the proteins cited; added tags and fusions are not shown. Lines headed by an entry give the natural chain unless they say otherwise; changes in a name come on top.
UniProt Q17551: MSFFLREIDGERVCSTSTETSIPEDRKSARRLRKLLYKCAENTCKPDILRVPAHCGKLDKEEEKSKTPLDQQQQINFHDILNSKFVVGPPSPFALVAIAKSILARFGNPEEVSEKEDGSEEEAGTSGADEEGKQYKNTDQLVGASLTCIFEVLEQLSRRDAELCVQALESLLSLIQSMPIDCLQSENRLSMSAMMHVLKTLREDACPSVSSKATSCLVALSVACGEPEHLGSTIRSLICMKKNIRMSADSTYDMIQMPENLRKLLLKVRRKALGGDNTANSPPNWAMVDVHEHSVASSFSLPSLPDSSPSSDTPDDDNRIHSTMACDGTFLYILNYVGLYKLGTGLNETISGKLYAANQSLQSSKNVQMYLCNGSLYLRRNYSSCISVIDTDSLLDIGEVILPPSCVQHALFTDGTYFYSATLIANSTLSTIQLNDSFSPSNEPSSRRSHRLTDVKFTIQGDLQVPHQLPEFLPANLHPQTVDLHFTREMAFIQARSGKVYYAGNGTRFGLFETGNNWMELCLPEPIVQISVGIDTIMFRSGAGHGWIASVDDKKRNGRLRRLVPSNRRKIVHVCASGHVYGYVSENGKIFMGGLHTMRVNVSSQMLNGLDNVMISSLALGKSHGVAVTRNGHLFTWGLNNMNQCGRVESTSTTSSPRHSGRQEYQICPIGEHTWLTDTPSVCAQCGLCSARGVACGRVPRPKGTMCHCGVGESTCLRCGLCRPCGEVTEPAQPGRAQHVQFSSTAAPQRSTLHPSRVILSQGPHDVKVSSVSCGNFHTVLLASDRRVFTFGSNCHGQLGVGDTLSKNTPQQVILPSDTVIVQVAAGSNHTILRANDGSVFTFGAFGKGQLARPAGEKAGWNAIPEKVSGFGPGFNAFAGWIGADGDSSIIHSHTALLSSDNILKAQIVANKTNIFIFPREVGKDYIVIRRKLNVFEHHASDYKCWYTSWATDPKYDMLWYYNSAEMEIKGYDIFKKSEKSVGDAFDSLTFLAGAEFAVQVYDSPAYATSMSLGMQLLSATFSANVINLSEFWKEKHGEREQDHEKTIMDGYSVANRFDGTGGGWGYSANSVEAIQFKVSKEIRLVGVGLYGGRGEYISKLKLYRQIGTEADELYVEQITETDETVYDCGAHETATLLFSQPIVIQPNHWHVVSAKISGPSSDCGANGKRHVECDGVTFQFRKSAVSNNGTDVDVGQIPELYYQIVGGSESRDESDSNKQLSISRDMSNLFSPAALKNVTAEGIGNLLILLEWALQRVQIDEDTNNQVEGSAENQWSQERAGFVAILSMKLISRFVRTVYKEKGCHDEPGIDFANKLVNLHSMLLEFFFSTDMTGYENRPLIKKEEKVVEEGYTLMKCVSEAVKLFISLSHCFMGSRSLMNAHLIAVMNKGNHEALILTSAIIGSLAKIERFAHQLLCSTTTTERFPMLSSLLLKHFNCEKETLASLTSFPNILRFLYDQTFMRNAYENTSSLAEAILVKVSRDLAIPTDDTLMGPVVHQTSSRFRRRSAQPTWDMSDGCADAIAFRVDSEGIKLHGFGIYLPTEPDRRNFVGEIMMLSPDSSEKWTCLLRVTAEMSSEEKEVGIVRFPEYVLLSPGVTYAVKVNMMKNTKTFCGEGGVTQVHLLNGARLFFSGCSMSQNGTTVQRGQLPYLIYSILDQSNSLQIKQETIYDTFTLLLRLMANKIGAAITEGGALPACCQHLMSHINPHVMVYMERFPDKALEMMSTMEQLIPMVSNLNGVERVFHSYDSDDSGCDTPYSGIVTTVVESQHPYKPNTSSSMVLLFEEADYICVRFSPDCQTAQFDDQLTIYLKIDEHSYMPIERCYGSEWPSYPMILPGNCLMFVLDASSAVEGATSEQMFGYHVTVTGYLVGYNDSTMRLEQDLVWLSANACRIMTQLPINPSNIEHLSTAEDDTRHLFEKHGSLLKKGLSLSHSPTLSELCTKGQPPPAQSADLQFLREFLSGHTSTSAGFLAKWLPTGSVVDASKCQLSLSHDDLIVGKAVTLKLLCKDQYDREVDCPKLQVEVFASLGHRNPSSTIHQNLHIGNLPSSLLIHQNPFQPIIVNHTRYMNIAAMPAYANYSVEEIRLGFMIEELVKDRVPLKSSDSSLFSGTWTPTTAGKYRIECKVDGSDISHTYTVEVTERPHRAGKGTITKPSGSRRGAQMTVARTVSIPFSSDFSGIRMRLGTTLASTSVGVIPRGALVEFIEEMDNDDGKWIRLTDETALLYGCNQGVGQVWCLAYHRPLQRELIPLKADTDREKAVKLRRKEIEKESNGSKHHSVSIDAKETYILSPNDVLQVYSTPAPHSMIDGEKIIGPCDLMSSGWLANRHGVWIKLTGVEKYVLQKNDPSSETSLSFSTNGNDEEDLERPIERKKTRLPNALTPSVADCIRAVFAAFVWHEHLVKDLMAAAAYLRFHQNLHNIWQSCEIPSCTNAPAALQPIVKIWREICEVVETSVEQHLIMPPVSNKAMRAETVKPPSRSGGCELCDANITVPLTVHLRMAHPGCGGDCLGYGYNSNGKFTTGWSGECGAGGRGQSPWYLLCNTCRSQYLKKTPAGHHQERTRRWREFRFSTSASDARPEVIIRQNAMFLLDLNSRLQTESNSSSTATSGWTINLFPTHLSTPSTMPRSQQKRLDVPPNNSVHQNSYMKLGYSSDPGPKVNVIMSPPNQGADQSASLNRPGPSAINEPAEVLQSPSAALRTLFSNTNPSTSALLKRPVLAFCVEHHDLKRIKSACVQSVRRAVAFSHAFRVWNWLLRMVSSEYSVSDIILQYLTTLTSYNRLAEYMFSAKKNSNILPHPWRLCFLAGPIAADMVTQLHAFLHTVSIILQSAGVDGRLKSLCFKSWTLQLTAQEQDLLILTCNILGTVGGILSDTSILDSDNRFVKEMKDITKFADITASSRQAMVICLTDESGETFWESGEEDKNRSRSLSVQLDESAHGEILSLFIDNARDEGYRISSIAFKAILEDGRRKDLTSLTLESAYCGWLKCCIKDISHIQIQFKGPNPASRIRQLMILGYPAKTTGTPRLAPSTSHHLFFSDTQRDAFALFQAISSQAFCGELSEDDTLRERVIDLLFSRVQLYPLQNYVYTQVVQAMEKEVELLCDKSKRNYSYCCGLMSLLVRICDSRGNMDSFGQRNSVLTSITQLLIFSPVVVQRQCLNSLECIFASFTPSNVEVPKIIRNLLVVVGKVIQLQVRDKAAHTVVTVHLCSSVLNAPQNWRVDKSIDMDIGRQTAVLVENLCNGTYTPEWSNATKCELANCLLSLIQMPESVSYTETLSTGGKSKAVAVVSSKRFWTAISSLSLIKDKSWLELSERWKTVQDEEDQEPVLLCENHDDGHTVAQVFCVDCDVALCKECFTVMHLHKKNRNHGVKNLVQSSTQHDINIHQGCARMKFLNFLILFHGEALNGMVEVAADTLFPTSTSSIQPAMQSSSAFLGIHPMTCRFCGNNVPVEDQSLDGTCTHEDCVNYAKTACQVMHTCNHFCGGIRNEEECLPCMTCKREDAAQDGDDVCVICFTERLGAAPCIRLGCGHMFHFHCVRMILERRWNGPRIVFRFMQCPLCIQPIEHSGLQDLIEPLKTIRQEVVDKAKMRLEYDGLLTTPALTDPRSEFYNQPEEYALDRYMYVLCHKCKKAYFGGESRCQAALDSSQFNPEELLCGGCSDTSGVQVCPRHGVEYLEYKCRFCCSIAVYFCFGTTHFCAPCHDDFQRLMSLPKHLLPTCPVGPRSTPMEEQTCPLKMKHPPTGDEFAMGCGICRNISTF

These are yes or no findings as the source states them, for the method shown. Binding seen in cells or lysates may run through a third protein. Some entries that bind do so weakly or less than the wild type. Where a sequence is shown, tags or fusion partners need not be part of it.

With “RPM-1 LD::GFP CRISPR (from UniProt Q17551 1-3766) (enzyme)”, the binding entry is recorded as “binds”.

These data come from article PMC6825199.
